Record: PubChem BioAssay AID1259254 (NCATS, 2017)
The whole screen tested about 59,000 reagents; this is a part drawn at random. Over the whole deposit, about 1,550 (2.6%) are marked active. 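G2 share is only a proxy for re-replication; each gene was hit by three separate siRNAs, and active genes were retested.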 The raw values are shown without normalisation. The numbers tell different reagents against one gene apart. The record does not give: the amount of reagent.

Purpose: 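Gene knock-downs that lead to re-replication, shown by excess G2 DNA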 (primary screen)
Cell system: human HCT116 colorectal cancer cells
Reagents: single siRNA against human genes
Timing: 3 days
Read-out: 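Imaged Hoechst DNA stain sorts each cell into a cycle phase by DNA amount; per plate, G2 fraction set to 0% for non-targeting and 100% for GMNN siRNA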
Reading the numbers: G2 robust z-score and G2 cells, % of GMNN control: higher = more G2 cells, more excess DNA replication; raw share of cells in G2: higher = larger share of cells with G2 DNA content
Rule for the call: 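An siRNA counts as active if its G2 robust z-score lies at least 5 MADs above the screen median; here such calls match roughly 38% of GMNN control or more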

target gene	reagent	G2 robust z-score	G2 cells, % of GMNN control	raw share of cells in G2 (%)	call
BSCL2	1	0.354	5.46	5.21	inactive
BSCL2	2	-0.572	-1.06	4.02	inactive
BSCL2	3	0.0422	3.26	5.35	inactive
ZNF583	1	0.0508	3.32	4.23	inactive
ZNF583	2	-0.041	2.68	4.1	inactive
ZNF583	3	0.0471	3.3	4.68	inactive
SLC52A2	1	0.261	4.8	7.56	inactive
SLC52A2	2	1.87	16.1	10.2	inactive
SLC52A2	3	-1.19	-5.37	1.62	inactive
PSMG1	1	1.01	10.1	9.61	inactive
PSMG1	2	-1.24	-5.73	1.62	inactive
PSMG1	3	-0.837	-2.92	2.32	inactive
TSGA10IP	1	1.3	12.1	7.97	inactive
TSGA10IP	2	0.29	5.01	4.84	inactive
TSGA10IP	3	-0.904	-3.39	2.11	inactive
TMEM121	1	-0.0126	2.88	5.56	inactive
TMEM121	2	-0.863	-3.11	1.53	inactive
TMEM121	3	-0.283	0.976	4.85	inactive
PODXL	1	3.47	27.4	16.6	inactive
PODXL	2	0.971	9.8	8.09	inactive
PODXL	3	0.151	4.03	4.81	inactive
SAMD4A	1	-0.612	-1.34	4.46	inactive
SAMD4A	2	-0.263	1.12	4.6	inactive
SAMD4A	3	0.18	4.24	4.76	inactive
C9orf163	1	-0.633	-1.48	3.07	inactive
C9orf163	2	2.64	21.5	10.2	inactive
C9orf163	3	-0.322	0.705	2.99	inactive
BABAM2	1	0.272	4.88	7.54	inactive
BABAM2	2	0.815	8.7	7.57	inactive
BABAM2	3	-0.436	-0.0979	3.37	inactive
ACTR8	1	-0.904	-3.39	4.1	inactive
ACTR8	2	-0.216	1.45	5.59	inactive
ACTR8	3	-0.273	1.04	4.87	inactive
FAM76A	1	-0.137	2	4.32	inactive
FAM76A	2	0.218	4.5	4.47	inactive
FAM76A	3	-0.651	-1.61	2.25	inactive
RNH1	1	-0.271	1.06	5.34	inactive
RNH1	2	0.231	4.59	6.43	inactive
RNH1	3	0.694	7.85	6.75	inactive
TNFSF14	1	-0.425	-0.0241	5.12	inactive
TNFSF14	2	-0.586	-1.16	3.44	inactive
TNFSF14	3	2.04	17.3	9.46	inactive
STC1	1	3.22	25.6	14.3	inactive
STC1	2	6.8	50.8	22	active
STC1	3	-0.627	-1.44	3.48	inactive
ATF7	1	-0.183	1.68	6.42	inactive
ATF7	2	-0.31	0.783	4.09	inactive
ATF7	3	2.11	17.8	13.5	inactive
GARRE1	1	2.25	18.8	13.8	inactive
GARRE1	2	-0.615	-1.36	3.38	inactive
GARRE1	3	-0.74	-2.24	2.59	inactive
PRKDC	1	8.96	66	27.4	active
PRKDC	2	-0.461	-0.274	5.32	inactive
PRKDC	3	-0.133	2.03	4.74	inactive
ZSCAN22	1	1.85	16	8.59	inactive
ZSCAN22	2	2.21	18.5	9.58	inactive
ZSCAN22	3	5.08	38.7	17.1	active
SLC25A1	1	-1.59	-8.18	2.93	inactive
SLC25A1	2	-1.35	-6.52	2.31	inactive
SLC25A1	3	-0.498	-0.538	3.78	inactive
EPHX3	1	5.55	42	20.3	active
EPHX3	2	2.35	19.5	11.3	inactive
EPHX3	3	-0.542	-0.844	5.08	inactive
SDR9C7	1	-0.633	-1.48	3.92	inactive
SDR9C7	2	-0.69	-1.88	4.16	inactive
SDR9C7	3	-1.31	-6.26	2.76	inactive
RLN1	1	-1.42	-7.04	1.8	inactive
RLN1	2	-0.508	-0.608	4.77	inactive
RLN1	3	1.89	16.2	10.9	inactive

In a second layout: 9 of the entries above
target gene,reagent,G2 robust z-score,"G2 cells, % of GMNN control",raw share of cells in G2 (%),call
ZSCAN22,1,1.85,16,8.59,inactive
ZSCAN22,2,2.21,18.5,9.58,inactive
ZSCAN22,3,5.08,38.7,17.1,active
SLC25A1,1,-1.59,-8.18,2.93,inactive
SLC25A1,2,-1.35,-6.52,2.31,inactive
SLC25A1,3,-0.498,-0.538,3.78,inactive
EPHX3,1,5.55,42,20.3,active
EPHX3,2,2.35,19.5,11.3,inactive
EPHX3,3,-0.542,-0.844,5.08,inactive
